This is one part of the list. Shown are side measurements of this screen, not its main read-out; they come without a call. Most of these compounds were active or inconclusive in the main read-out, so they are no random draw. The note in brackets gives the kind of curve behind each potency; many fits are weak.

Consider 40 compounds from PubChem BioAssay AID445 (National Center for Advancing Translational Sciences (NCATS), 2006).

The nature of this test: IkB Signaling. As to conditions: ABC-DLBCL IkBa-CBG/CBR dual luciferase ratio (green luciferase fused to IkBa over red control in OCI-Ly3 lymphoma cells), 4 h. The essentials:
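Luminescence ratio of IκBα-fused green versus native red beetle luciferase in OCI-Ly3 cells, 4 h post-doxycycline with compound; red signal alone, scaled from basal (0%) to zero light (-100%), flagged nonspecific or cytotoxic effects.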

Setting [1] is: measured here: control luc red channel unless noted.

`Cc1ccc(C)c(NC(=O)CCCN2C(=O)COc3ccc(C)cc32)c1`: under setting [1], the concentration at half-maximal activity (AC50) was 10 µM [falling, single point]. Regarding `CC(C)(C)OC(=O)N1CCC(c2c(C(=O)Nc3cccc(C(F)(F)F)c3)cnn2-c2ccc(F)cc2F)CC1`, the concentration at half-maximal activity (AC50) under setting [1] was 15.8 µM [falling, partial curve]. Still for that read-out and setting: the result for `COc1ccc(C)cc1NC(=O)c1cc2c(s1)-c1ccccc1SC2` reads 0.631 µM [falling, full curve]; that for `O=c1c(-c2ccc3c(c2)OCCO3)coc2cc(O)cc(O)c12`, 15.8 µM [falling, single point]. In the case of `CC(=O)Nc1cc(C(=O)NCc2ccc(F)cc2)ccc1Sc1ccc(C)cc1`, the AC50 under setting [1] was 39.8 µM [falling, partial curve]. For `Cc1nn(-c2ccccc2)c(-n2cccc2)c1C(=O)NCc1ccccc1Cl`, under setting [1], the AC50 is 15.8 µM [falling, partial curve]. The same measure, in the same setting: the result for `O=C1CN(C(=O)c2ccc(Cl)cc2Cl)C(c2ccc(F)cc2)c2cc(F)ccc2N1` (stereo unspecified) reads 3.98 µM [falling, partial curve]. The same measure, in the same setting: the figure for `CCOC(=O)C1CCN(C(=O)CSc2n[nH]c(-c3ccccc3Cl)n2)CC1` is 25.1 µM [falling, partial curve, poor fit]; for `CN1C(=O)CSc2ccc(NC(=O)N3CCc4ccccc43)cc21` it is 15.8 µM [falling, partial curve]; for `Cc1ccc(CCNC(=O)CN2C(=O)COc3ccc(S(=O)(=O)N4CCCCC4)cc32)cc1` it is 39.8 µM [falling, single point]. As to `Cc1ccc(C(CC(=O)NCC2(c3ccccc3)CCCC2)c2ccccc2)c(O)c1` (stereo unspecified), under setting [1], the concentration at half-maximal activity (AC50) was 12.6 µM [falling, partial curve].

As to `Cc1ccc(Nc2nnc(-c3ccc(C)c(S(=O)(=O)N4CCCCC4)c3)c3ccccc23)cc1`, the concentration at half-maximal activity (AC50) under setting [1] was 10 µM [falling, partial curve]. On the same count and under the same terms, the figure for `CCOc1ccc2c(c1)[C@@H]1C=CC[C@@H]1[C@H](c1ccccc1Cl)N2` is 12.6 µM [falling, single point]; for `CC(C)(C)OC(=O)N1CCC(c2c(C(=O)Nc3ccc4c(c3)OCCO4)cnn2-c2ccc(F)cc2)CC1` it is 39.8 µM [falling, single point]; for `COc1ccc(OC)c(NCc2cccn2-c2nnc(N3CCC(C)CC3)s2)c1` it is 39.8 µM [rising, single point]. On the same count and under the same terms, the result for `Cc1cccc(-c2nc3c(cnn3-c3ccccc3)c(=O)n2-c2cccc(Cl)c2)c1` reads 10 µM [falling, partial curve]; that for `CC1CCCCN1S(=O)(=O)c1ccc(F)c(C(=O)Nc2ccccc2C(F)(F)F)c1` (stereo unspecified), 31.6 µM [falling, single point]; that for `CCOC(=O)C1CCN(c2cc3c(cc2NC(=O)c2ccc(OC)c(OC)c2)n(C)c(=O)n3C)CC1`, 10 µM [falling, partial curve]. On to `O=C(O)c1cccc(Nc2ncnc3ccccc23)c1`, for which, under setting [1], the half-maximal activity concentration (AC50) was 5.01 µM [falling, full curve]. As for `CCCc1ccc(-c2ccc(C(=O)O)cc2)nc1`, the AC50 under setting [1] is 0.251 µM [falling, full curve]. On to `Cc1cn2c(=O)cc(COc3cc(C)c(Cl)c(C)c3)nc2s1`, for which the AC50 under setting [1] is 2.51 µM [rising, partial curve].

As for `CCOc1cc2sc(N3CCC(C(=O)Nc4ccc(C(C)C)cc4)CC3)nc2cc1Br`, the half-maximal activity concentration (AC50) under setting [1] was 0.158 µM [falling, full curve]. Same read-out and setting: the result for `CCOc1ccc(NC(=O)CN(c2ccccc2OCC)S(=O)(=O)c2ccccc2)cc1` reads 10 µM [falling, partial curve]; that for `COc1cccc(-c2cc(C(=O)Nc3ccccc3SC)no2)c1`, 0.00316 µM [falling, full curve]. In the case of `Cc1cc(Cl)ccc1NS(=O)(=O)c1ccc2c(c1)CCN2S(C)(=O)=O`, the concentration at half-maximal activity (AC50) under setting [1] was 20 µM [falling, partial curve]. The same measure, in the same setting: the figure for `COc1ccc(S(=O)(=O)N2CCN(Cc3nc4ccc(C)cc4o3)CC2)cc1OC` is 10 µM [falling, partial curve]. With `CC1CC(C)CN(c2ncc3c(n2)CC(c2ccccc2)CC3=O)C1` (stereo unspecified), the AC50 is, setting by setting: (measured here: IkB-luc green channel) 7.94 µM [rising, single point]; (measured here: control luc red channel) 6.31 µM [rising, single point]. Regarding `COC(=O)Cc1[nH]nc2c1C(C1C=CCCC1)C(C#N)=C(N)O2` (stereo unspecified), under setting [1], the AC50 is 15.8 µM [falling, partial curve]. Still for that read-out and setting: the figure for `O=C(NCc1cccs1)c1nn(-c2ccccc2)nc1CO` is 6.31 µM [falling, single point]; for `CCOc1ccc(NC(=O)CSc2cc(C)c3ccccc3n2)cc1` it is 1 µM [rising, single point]. Still for that read-out and setting: the figure for `COc1ccc(CCNC(=O)Cc2c(C)c3c(cc(C)c4c(C)c(C)oc43)oc2=O)cc1OC` is 39.8 µM [falling, single point].

In the case of `Cc1ccc(NC(=O)Cn2c(=O)n(-c3ccc(C)cc3)c(=O)c3ccc(C(=O)NCc4ccccc4Cl)cc32)cc1`, under setting [1], the AC50 is 10 µM [falling, partial curve]. As to `Cc1cc(C)cc(NC(=O)c2sc3nc(-c4ccccc4)cn3c2C)c1`, the half-maximal activity concentration (AC50) under setting [1] is 3.16 µM [falling, partial curve]. On the same count and under the same terms, the figure for `CC(=O)Nc1nonc1-c1nnc(SCc2ccc(F)cc2Cl)n1C` is 15.8 µM [falling, single point]. The same measure, in the same setting: the result for `CCOC(=O)c1cccc(NC(=O)CCS(=O)(=O)c2ccc(Br)s2)c1` reads 39.8 µM [falling, single point]; that for `COc1ccc(NC(=O)c2cc(-c3ccc4c(c3)OCO4)on2)c(OC)c1`, 5.01 µM [falling, full curve, poor fit]; that for `COc1ccc(/C=C/C(=O)Nc2ccc3nc(N4CCC(C)CC4)cc(C)c3c2)cc1OC`, 7.94 µM [falling, full curve]. On the same count and under the same terms, the result for `Cn1c(=O)c2c(nc(SCC(=O)Nc3ccc(F)cc3F)n2Cc2ccccc2)n(C)c1=O` reads 7.94 µM [falling, full curve]; that for `CC1(C(=O)NC2CCCCC2)Cc2ccccc2C(=O)N1Cc1ccc(Cl)cc1` (stereo unspecified), 39.8 µM [falling, single point]; that for `Cc1nc2nc(SCC(=O)NCc3ccccc3)nn2c(C)c1Cc1ccccc1Cl`, 31.6 µM [falling, single point].

In general, AC50 refers to the concentration giving half of the maximal activity seen.
